Reference: patent US7842488B2, “Polynucleotides encoding a human 3-phosphoinositide- dependent protein kinase” (Medical Research Council, priority 1997, dated 2010)
“Also recorded” adds a separate entry of the source. At least one structure is not confirmed: it was looked up by name or label, or the drawing left a doubt.

Columns and labels:
PKB = conditions: cited from earlier work
PDK1 = PDK1 assay: activation of GST-PKBα by purified PDK1 with phospholipid vesicles; format: biochemical, rabbit; conditions: up to 2 μM
Protocol: Assay of PDK1. The assay was carried out in two stages; in the first, GST-PKBα was incubated with PDK1 in the presence of MgATP and phospholipid vesicles to permit activation of GST-PKBα.
After 10 min at 30° C., the reactions were terminated by spotting the reaction mixture on to p81 phosphocellulose paper. The papers were washed in phosphoric acid and analysed as described previously. […] The basal GST-PKBα activity is the activity measured in the absence of PDK1.

COC[C@H]1OC(=O)c2coc3c2[C@@]1(C)C1=C(C3=O)[C@@H]2CCC(=O)[C@@]2(C)C[C@H]1OC(C)=O [wortmannin]
insulin or IGF1 induced phosphorylation of PKB at Thr-308 and Ser-473 in the presence of wortmannin (PKB): prevented; also recorded: abolished | PDK1 activity in the presence of wortmannin (PDK1): unaffected
